According to PMC5216127:
These are yes or no findings as the source states them, for the method shown. For part of these data: In cells and extracts the contact can be indirect. Some results given as binding are weak or reduced against the parent protein; the word gives no strength. For part of these data: Sequences can lack the tags named with a protein. Values belong to the binder of their own block, whether it stands above or below them.

Chains of the proteins cited; added tags and fusions are not shown. Lines headed by an entry give the natural chain unless they say otherwise; changes in a name come on top. A line that says so, or that is headed by a name, gives the form on record, which may keep a tag or linker.
Human TEAD4 (35–434, deletion 121–174) (Q15561, form named): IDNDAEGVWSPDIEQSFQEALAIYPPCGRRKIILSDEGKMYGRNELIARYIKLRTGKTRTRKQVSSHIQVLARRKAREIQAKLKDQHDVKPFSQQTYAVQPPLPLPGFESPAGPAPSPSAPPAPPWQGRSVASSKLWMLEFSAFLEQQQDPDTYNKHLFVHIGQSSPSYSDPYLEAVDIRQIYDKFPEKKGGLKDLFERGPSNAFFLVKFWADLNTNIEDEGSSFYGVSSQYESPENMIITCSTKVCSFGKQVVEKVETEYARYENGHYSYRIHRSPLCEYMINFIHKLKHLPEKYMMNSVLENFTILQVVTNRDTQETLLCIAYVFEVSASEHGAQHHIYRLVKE

What was measured:
[1] = target: Human TEAD4 (35–434, deletion 121–174) (human) (UniProt Q15561); assay: BLI; full length TEAD4 coated on chip; GST-tagged TCF4 constructs or GST in solution; Octet Red 96; both purified
[2] = target: Human TEAD4 (35–434, deletion 121–174) (human) (UniProt Q15561); assay: SEC; gel filtration of VGLL4, TEAD4, TCF4 and β-catenin with or without the SOX2 DNA; both purified
[3] = target: TCF4 (endogenous, HEK293T) (human (endogenous in HEK293T)) (UniProt Q9NQB0); assay: co-IP; HEK293T cells treated with or without Wnt3a for 4 h; lysates immunoprecipitated with anti-TCF4 antibody or control IgG, Protein A/G beads; endogenous proteins

binding [1]: no binding
Binder: GGDDLGANDELISFKDEGEQEEKSSENSSAERDLADVKSSLVNESET (domain or fragment, UniProt Q9NQB0 8-54) [GST-tagged TCF4 (amino acids 8–54)]

binding [2]: binds
B1: VGLL4 (203–256) (domain or fragment, UniProt Q14135 203-256)
chain: TTCDPVVEEHFRRSLGKNYKEPEPAPNSVSITGSVDDHFAKALGDTWLQIKAAK

binding [3]: binds
B2: VGLL4 (endogenous, HEK293T) (protein, UniProt Q14135 1-290)
chain: METPLDVLSRAASLVHADDEKREAALRGEPRIQTLPVASALSSHRTGPPPISPSKRKFSMEPGDEDLDCDNDHVSKMSRIFNPHLNKTANGDCRRDPRERSRSPIERAVAPTMSLHGSHLYTSLPSLGLEQPLALTKNSLDASRPAGLSPTLTPGERQQNRPSVITCASAGARNCNLSHCPIAHSGCAAPGPASYRRPPSAATTCDPVVEEHFRRSLGKNYKEPEPAPNSVSITGSVDDHFAKALGDTWLQIKAAKDGASSSPESASRRGQPASPSAHMVSHSHSPSVVS
